The supplement of paper PMC4604168 (melanoma cell lines)
The other results are listed elsewhere or left out. Many values rest on one well or one pass, so single values are uncertain.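 Imaging used 1,536-well plates; nuclei positive for cleaved PARP by antibody were divided by total DNA-stained nuclei to yield the apoptosis fraction. Doses for screening kept most cells viable, and cell lines differ markedly in resting and induced cleaved-PARP levels.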

Assays:
Assay in all cases: cleaved PARP positive nuclei fraction relative to DMSO control; melanoma cells; higher = more apoptosis
Details in all cases: library dose: low library concentration; 72 h
501Mel = system: 501Mel
A101D = system: A101D
A2058 = system: A2058
C32 = system: C32
CBRC008 = system: CBRC008 (line from a melanoma biopsy)
CBRC014 = system: CBRC014 (line from a melanoma biopsy)
CBRC016 = system: CBRC016 (line from a melanoma biopsy)
CBRC017 = system: CBRC017 (line from a melanoma biopsy)

Row | SMILES | cleaved PARP positive nuclei fraction (501Mel) | cleaved PARP positive nuclei fraction (A101D) | cleaved PARP positive nuclei fraction (A2058) | cleaved PARP positive nuclei fraction (C32) | cleaved PARP positive nuclei fraction (CBRC008) | cleaved PARP positive nuclei fraction (CBRC014) | cleaved PARP positive nuclei fraction (CBRC016) | cleaved PARP positive nuclei fraction (CBRC017)
1 | Cc1ccc(Nc2nccc(N(C)c3ccc4c(C)n(C)nc4c3)n2)cc1S(N)(=O)=O [Pazopanib] + O=S(=O)(c1ccccc1)N(CC(F)(F)F)c1ccc(C(O)(C(F)(F)F)C(F)(F)F)cc1 [T0901317] (first compound 0.4 µM, partner dose 1.4 µM) | 84% | 14.7% | 48.7% | 40.5% | 51.5% | 114% | 56.1% | 178%
2 | Cc1cc(Nc2cc(N3CCN(C)CC3)nc(Sc3ccc(NC(=O)C4CC4)cc3)n2)n[nH]1 [Tozasertib] + Oc1cc(-c2nc(-c3ccccc3)[nH]c2-c2ccncc2)ccc1Cl [L779450] (first compound 0.006 µM, partner dose 0.2 µM) | 39.3% | 30.9% | 175% | 86% | 122% | 110% | 74.7% | 114%
3 | Cc1cc(Nc2cc(N3CCN(C)CC3)nc(Sc3ccc(NC(=O)C4CC4)cc3)n2)n[nH]1 [Tozasertib] + O=S(=O)(c1ccccc1)N(CC(F)(F)F)c1ccc(C(O)(C(F)(F)F)C(F)(F)F)cc1 [T0901317] (first compound 0.006 µM, partner dose 1.4 µM) | 167% | 28.7% | 76% | 86.7% | 105% | 102% | 29.1% | 294%
4 | O=C(Nc1cc(C(F)(F)F)cc(C(F)(F)F)c1)c1cc(Cl)ccc1O + N#Cc1c(O)c2c(-c3ccc(-c4ccccc4O)cc3)csc2[nH]c1=O [A769662] (first compound 0.016 µM, partner dose 2 µM) | 61.5% | 28.1% | 109% | 35% | 178% | 81.6% | 32.6% | 119%
5 | Cc1ccc(Nc2nccc(N(C)c3ccc4c(C)n(C)nc4c3)n2)cc1S(N)(=O)=O [Pazopanib] + COc1ccc2c(c1)CCC1C2CCC2(C)C(NCCCCCCN3C(=O)C=CC3=O)CCC12 [U73122] (first compound 0.4 µM, partner dose 0.4 µM) | 52.5% | 34.7% | 41.4% | 31.2% | 228% | 125% | 129% | 150%
6 | Cc1cn(-c2cc(NC(=O)c3ccc(C)c(Nc4nccc(-c5cccnc5)n4)c3)cc(C(F)(F)F)c2)cn1 [nilotinib] + CCCCCCCCCCCC1=C(O)C(=O)C=C(O)C1=O [Embelin] (first compound 0.2 µM, partner dose 1.2 µM) | 53.7% | 33.8% | 78.5% | 220% | 94.3% | 89.3% | 14% | 79.6%
7 | O=C(/C=C/c1cccnc1)NCCCCC1CCN(C(=O)c2ccccc2)CC1 + O=C1NC(=O)/C(=C/c2ccc(-c3ccc(F)cc3O)o2)S1 [AS252424] (first compound 0.01 µM, partner dose 1 µM) | 33.5% | 32.6% | 68.1% | 16.3% | 1020% | 193% | 396% | 208%
8 | O=C(Nc1cc(C(F)(F)F)cc(C(F)(F)F)c1)c1cc(Cl)ccc1O + COC(=O)c1sccc1S(=O)(=O)Nc1ccc(Nc2ccccc2)cc1OC [GSK0660] (first compound 0.016 µM, partner dose 1 µM) | 118% | 20% | 67.8% | 131% | 102% | 92.1% | 120% | 96.2%
9 | Cc1cc(Nc2cc(N3CCN(C)CC3)nc(Sc3ccc(NC(=O)C4CC4)cc3)n2)n[nH]1 [Tozasertib] + Cn1cc(/C=C2\C(=O)Nc3cccnc32)c2ccccc21 [GW441756] (first compound 0.006 µM, partner dose 0.4 µM) | 66% | 27.8% | 86% | 159% | 84% | 91.5% | 40.2% | 95.2%
10 | N#CC[C@H](C1CCCC1)n1cc(-c2ncnc3[nH]ccc23)cn1 [ruxolitinib] + N#Cc1c(O)c2c(-c3ccc(-c4ccccc4O)cc3)csc2[nH]c1=O [A769662] (first compound 1 µM, partner dose 2 µM) | 68.7% | 12% | 97.9% | 74.4% | 102% | 119% | 88.9% | 231%
11 | CCCCCCCCCCCCCCCCCCOP(=O)([O-])OC1CC[N+](C)(C)CC1 [Perifosine] + Cn1cc(/C=C2\C(=O)Nc3cccnc32)c2ccccc21 [GW441756] (first compound 0.4 µM, partner dose 0.4 µM) | 59.1% | 43.2% | 142% | 120% | 180% | 104% | 50.5% | 71.8%
12 | Cc1cn(-c2cc(NC(=O)c3ccc(C)c(Nc4nccc(-c5cccnc5)n4)c3)cc(C(F)(F)F)c2)cn1 [nilotinib] + COc1ccc(COc2ccc(Cc3cnc(N)nc3N)cc2OC)cc1 [GW2580] (first compound 0.2 µM, partner dose 1 µM) | 34.3% | 8.5% | 69.3% | 134% | 70.5% | 86.6% | 13.5% | 95%
13 | COc1cc([C@@H]2c3cc4c(cc3[C@@H](O[C@@H]3O[C@@H]5CO[C@@H](C)O[C@H]5[C@H](O)[C@H]3O)[C@H]3COC(=O)[C@H]23)OCO4)cc(OC)c1O [etoposide] + Oc1nc(-c2ccc(C(F)(F)F)cc2)nc2c1CSCC2 [XAV939] (first compound 0.02 µM, partner dose 2 µM) | 68.3% | 85.5% | 169% | 77.2% | 71.4% | 88.5% | 66.1% | 242%
14 | O=c1[nH]nc(Sc2ncc([N+](=O)[O-])s2)n1-c1ccc2c(c1)OCCO2 + Cn1cc(/C=C2\C(=O)Nc3cccnc32)c2ccccc21 [GW441756] (first compound 0.2 µM, partner dose 0.4 µM) | 62% | 31.8% | 104% | 88.4% | 184% | 98.9% | 143% | 83.9%
15 | CC[C@]1(O)C[C@H]2CN(CCc3c([nH]c4ccccc34)[C@@](C(=O)OC)(c3cc4c(cc3OC)N(C=O)[C@H]3[C@@](O)(C(=O)OC)[C@H](OC(C)=O)[C@]5(CC)C=CCN6CC[C@]43[C@@H]65)C2)C1 [vincristine] + CCc1ccc(CCOc2ccc(CC3SC(=O)NC3=O)cc2)nc1 [pioglitazone] (first compound 0.0001 µM, partner dose 2 µM) | 113% | 107% | 2230% | 342% | 161% | 109% | 75.2% | 98%
16 | COc1cc([C@@H]2c3cc4c(cc3[C@@H](O[C@@H]3O[C@@H]5CO[C@@H](C)O[C@H]5[C@H](O)[C@H]3O)[C@H]3COC(=O)[C@H]23)OCO4)cc(OC)c1O [etoposide] + Cc1cc([N+](=O)[O-])ccc1NS(=O)(=O)c1cc(Cl)ccc1Cl [FH535] (first compound 0.02 µM, partner dose 1 µM) | 192% | 44.3% | 119% | 129% | 284% | 154% | 321% | 276%
17 | COc1cc([C@@H]2c3cc4c(cc3[C@@H](O[C@@H]3O[C@@H]5CO[C@@H](C)O[C@H]5[C@H](O)[C@H]3O)[C@H]3COC(=O)[C@H]23)OCO4)cc(OC)c1O [etoposide] + O=C(Nc1ccccc1)c1cc([N+](=O)[O-])ccc1Cl [GW9662] (first compound 0.02 µM, partner dose 2 µM) | 134% | 20.3% | 101% | 90% | 65.6% | 96.4% | 47.7% | 87.7%
18 | CCCCCCCCCCCCCCCCCCOP(=O)([O-])OC1CC[N+](C)(C)CC1 [Perifosine] + CCCCCCCCCCCC1=C(O)C(=O)C=C(O)C1=O [Embelin] (first compound 0.4 µM, partner dose 1.2 µM) | 197% | 19.1% | 95.4% | 149% | 85.8% | 121% | 16.3% | 109%
19 | Cc1cn(-c2cc(NC(=O)c3ccc(C)c(Nc4nccc(-c5cccnc5)n4)c3)cc(C(F)(F)F)c2)cn1 [nilotinib] + COc1ccc2c(c1)CCC1C2CCC2(C)C(NCCCCCCN3C(=O)C=CC3=O)CCC12 [U73122] (first compound 0.2 µM, partner dose 0.4 µM) | 76.2% | 40.1% | 180% | 271% | 51.8% | 80.2% | 79% | 68.6%
20 | Cc1ccc(Nc2nccc(N(C)c3ccc4c(C)n(C)nc4c3)n2)cc1S(N)(=O)=O [Pazopanib] + COc1cc2ncnc(Nc3ccc(Oc4ccccc4)cc3)c2cc1OC [SrcI1] (first compound 0.4 µM, partner dose 2 µM) | 74.8% | 21% | 120% | 161% | 173% | 101% | 82.9% | 79.5%
21 | CCCCCCCCCCCCCCCCCCOP(=O)([O-])OC1CC[N+](C)(C)CC1 [Perifosine] + O=S(=O)(c1ccccc1)N(CC(F)(F)F)c1ccc(C(O)(C(F)(F)F)C(F)(F)F)cc1 [T0901317] (first compound 0.4 µM, partner dose 1.4 µM) | 35.2% | 14.6% | 134% | 190% | 167% | 98.4% | 64% | 102%
22 | O=C(/C=C/c1cccnc1)NCCCCC1CCN(C(=O)c2ccccc2)CC1 + O=c1cc(-c2cccc3c2Sc2ccccc2S3)oc(N2CCOCC2)c1 [KU55933] (first compound 0.01 µM, partner dose 1 µM) | 78.7% | 32.9% | 370% | 129% | 1800% | 128% | 702% | 436%
23 | COc1cc([C@@H]2c3cc4c(cc3[C@@H](O[C@@H]3O[C@@H]5CO[C@@H](C)O[C@H]5[C@H](O)[C@H]3O)[C@H]3COC(=O)[C@H]23)OCO4)cc(OC)c1O [etoposide] + c1cc(-c2cnn3cc(-c4ccc(OCCN5CCCCC5)cc4)cnc23)ccn1 [Dorsomorphin] (first compound 0.02 µM, partner dose 0.4 µM) | 89.5% | 37.6% | 76.2% | 180% | 50.7% | 112% | 82.3% | 105%

Some of the entries above, reformatted:
Row,SMILES,cleaved PARP positive nuclei fraction (501Mel),cleaved PARP positive nuclei fraction (A101D),cleaved PARP positive nuclei fraction (A2058),cleaved PARP positive nuclei fraction (C32),cleaved PARP positive nuclei fraction (CBRC008),cleaved PARP positive nuclei fraction (CBRC014),cleaved PARP positive nuclei fraction (CBRC016),cleaved PARP positive nuclei fraction (CBRC017)
2,"Cc1cc(Nc2cc(N3CCN(C)CC3)nc(Sc3ccc(NC(=O)C4CC4)cc3)n2)n[nH]1 [Tozasertib] + Oc1cc(-c2nc(-c3ccccc3)[nH]c2-c2ccncc2)ccc1Cl [L779450] (first compound 0.006 µM, partner dose 0.2 µM)",39.3%,30.9%,175%,86%,122%,110%,74.7%,114%
3,"Cc1cc(Nc2cc(N3CCN(C)CC3)nc(Sc3ccc(NC(=O)C4CC4)cc3)n2)n[nH]1 [Tozasertib] + O=S(=O)(c1ccccc1)N(CC(F)(F)F)c1ccc(C(O)(C(F)(F)F)C(F)(F)F)cc1 [T0901317] (first compound 0.006 µM, partner dose 1.4 µM)",167%,28.7%,76%,86.7%,105%,102%,29.1%,294%
